Assay results taken from paper PMC10482750.

Legend:
[1] = system: RNA polymerase II (FLAG-Rpb1) + DSIF KOW4-Asp; assay: EMSA; details: Pol II EC, no change vs WT; none; Premix (15 ul) 50 mM HEPES pH 7.5, 200 mM KCl, 1 mM MnCl2, 12% glycerol, 0.5 mM DTT, 0.5 mM UpG, 66 ng/ul BSA, ~4 ng template, ~80 ng Pol II; native protein; label: 5'-Cy5 on bottom strand (strand 1)
[2] = system: RNA polymerase II (FLAG-Rpb1) + DSIF KOW2-3-S.c.; assay: EMSA; details: Pol II EC, no change vs WT; none; Premix (15 ul) 50 mM HEPES pH 7.5, 200 mM KCl, 1 mM MnCl2, 12% glycerol, 0.5 mM DTT, 0.5 mM UpG, 66 ng/ul BSA, ~4 ng template, ~80 ng Pol II; native protein; label: 5'-Cy5 on bottom strand (strand 1)
[3] = system: RNA polymerase II (FLAG-Rpb1) + DSIF NGN-K.p.; assay: EMSA; details: Pol II EC, no change vs WT; none; Premix (15 ul) 50 mM HEPES pH 7.5, 200 mM KCl, 1 mM MnCl2, 12% glycerol, 0.5 mM DTT, 0.5 mM UpG, 66 ng/ul BSA, ~4 ng template, ~80 ng Pol II; native protein; label: 5'-Cy5 on bottom strand (strand 1)
[4] = system: RNA polymerase II (FLAG-Rpb1) + DSIF WT (Spt5-Spt4); assay: EMSA; details: DSIF: 0.7 pmol no shift, 1.4 pmol incomplete, 2.8 pmol complete shift of Pol II EC; none; Premix (15 ul) 50 mM HEPES pH 7.5, 200 mM KCl, 1 mM MnCl2, 12% glycerol, 0.5 mM DTT, 0.5 mM UpG, 66 ng/ul BSA, ~4 ng template, ~80 ng Pol II; native protein; label: 5'-Cy5 on bottom strand (strand 1)
[5] = system: RNA polymerase II (FLAG-Rpb1) + DSIF NGN-K.p._R; assay: EMSA; details: Pol II EC, no change vs WT; none; Premix (15 ul) 50 mM HEPES pH 7.5, 200 mM KCl, 1 mM MnCl2, 12% glycerol, 0.5 mM DTT, 0.5 mM UpG, 66 ng/ul BSA, ~4 ng template, ~80 ng Pol II; native protein; label: 5'-Cy5 on bottom strand (strand 1)
[6] = system: RNA polymerase II (FLAG-Rpb1) + DSIF NGN-C.e.; assay: EMSA; details: Pol II EC, no change vs WT; none; Premix (15 ul) 50 mM HEPES pH 7.5, 200 mM KCl, 1 mM MnCl2, 12% glycerol, 0.5 mM DTT, 0.5 mM UpG, 66 ng/ul BSA, ~4 ng template, ~80 ng Pol II; native protein; label: 5'-Cy5 on bottom strand (strand 1)
[7] = system: RNA polymerase II (FLAG-Rpb1) + NELF (NELF-A, -B, -D, -E); assay: EMSA; details: NELF alone added to preformed Pol II EC, no DSIF: no shift; none; Premix (15 ul) 50 mM HEPES pH 7.5, 200 mM KCl, 1 mM MnCl2, 12% glycerol, 0.5 mM DTT, 0.5 mM UpG, 66 ng/ul BSA, ~4 ng template, ~80 ng Pol II; native protein; label: 5'-Cy5 on bottom strand (strand 1)
[8] = system: RNA polymerase II (FLAG-Rpb1) + DSIF Spt4 (R79E, R82E, K109E); assay: EMSA; details: Pol II EC, no change vs WT; none; Premix (15 ul) 50 mM HEPES pH 7.5, 200 mM KCl, 1 mM MnCl2, 12% glycerol, 0.5 mM DTT, 0.5 mM UpG, 66 ng/ul BSA, ~4 ng template, ~80 ng Pol II; native protein; label: 5'-Cy5 on bottom strand (strand 1)
[9] = system: RNA polymerase II (FLAG-Rpb1) + DSIF NGN-S.c.; assay: EMSA; details: Pol II EC, no change vs WT; none; Premix (15 ul) 50 mM HEPES pH 7.5, 200 mM KCl, 1 mM MnCl2, 12% glycerol, 0.5 mM DTT, 0.5 mM UpG, 66 ng/ul BSA, ~4 ng template, ~80 ng Pol II; native protein; label: 5'-Cy5 on bottom strand (strand 1)
[10] = system: RNA polymerase II (FLAG-Rpb1) + DSIF NGN-K.p._R + NELF (NELF-A, -B, -D, -E); assay: EMSA supershift; details: NELF recruitment; none; Premix (15 ul) 50 mM HEPES pH 7.5, 200 mM KCl, 1 mM MnCl2, 12% glycerol, 0.5 mM DTT, 0.5 mM UpG, 66 ng/ul BSA, ~4 ng template, ~80 ng Pol II; native protein; label: 5'-Cy5 on bottom strand (strand 1)
[11] = system: RNA polymerase II (FLAG-Rpb1) + DSIF NGN-S.c. + NELF (NELF-A, -B, -D, -E); assay: EMSA supershift; details: NELF recruitment comparable to WT; none; Premix (15 ul) 50 mM HEPES pH 7.5, 200 mM KCl, 1 mM MnCl2, 12% glycerol, 0.5 mM DTT, 0.5 mM UpG, 66 ng/ul BSA, ~4 ng template, ~80 ng Pol II; native protein; label: 5'-Cy5 on bottom strand (strand 1)
[12] = system: RNA polymerase II (FLAG-Rpb1) + DSIF Spt4 (R79E, R82E, K109E) + NELF (NELF-A, -B, -D, -E); assay: EMSA supershift; details: NELF recruitment no change vs WT; none; Premix (15 ul) 50 mM HEPES pH 7.5, 200 mM KCl, 1 mM MnCl2, 12% glycerol, 0.5 mM DTT, 0.5 mM UpG, 66 ng/ul BSA, ~4 ng template, ~80 ng Pol II; native protein; label: 5'-Cy5 on bottom strand (strand 1)
[13] = system: RNA polymerase II (FLAG-Rpb1) + DSIF NGN-C.e. + NELF (NELF-A, -B, -D, -E); assay: EMSA supershift; details: NELF recruitment comparable to WT; none; Premix (15 ul) 50 mM HEPES pH 7.5, 200 mM KCl, 1 mM MnCl2, 12% glycerol, 0.5 mM DTT, 0.5 mM UpG, 66 ng/ul BSA, ~4 ng template, ~80 ng Pol II; native protein; label: 5'-Cy5 on bottom strand (strand 1)
[14] = system: RNA polymerase II (FLAG-Rpb1) + DSIF KOW4-Asp + NELF (NELF-A, -B, -D, -E); assay: EMSA supershift; details: NELF recruitment; none; Premix (15 ul) 50 mM HEPES pH 7.5, 200 mM KCl, 1 mM MnCl2, 12% glycerol, 0.5 mM DTT, 0.5 mM UpG, 66 ng/ul BSA, ~4 ng template, ~80 ng Pol II; native protein; label: 5'-Cy5 on bottom strand (strand 1)
[15] = system: RNA polymerase II (FLAG-Rpb1) + DSIF NGN-K.p. + NELF (NELF-A, -B, -D, -E); assay: EMSA supershift; details: NELF recruitment comparable to WT; none; Premix (15 ul) 50 mM HEPES pH 7.5, 200 mM KCl, 1 mM MnCl2, 12% glycerol, 0.5 mM DTT, 0.5 mM UpG, 66 ng/ul BSA, ~4 ng template, ~80 ng Pol II; native protein; label: 5'-Cy5 on bottom strand (strand 1)
[16] = system: RNA polymerase II (FLAG-Rpb1) + DSIF KOW2-3-S.c. + NELF (NELF-A, -B, -D, -E); assay: EMSA supershift; details: NELF recruitment decreased; none; Premix (15 ul) 50 mM HEPES pH 7.5, 200 mM KCl, 1 mM MnCl2, 12% glycerol, 0.5 mM DTT, 0.5 mM UpG, 66 ng/ul BSA, ~4 ng template, ~80 ng Pol II; native protein; label: 5'-Cy5 on bottom strand (strand 1)
[17] = system: RNA polymerase II (FLAG-Rpb1) + DSIF WT (Spt5-Spt4) + NELF (NELF-A, -B, -D, -E); assay: EMSA supershift; details: NELF recruitment, sharper supershift at 2.8 than 1.4 pmol DSIF; none; Premix (15 ul) 50 mM HEPES pH 7.5, 200 mM KCl, 1 mM MnCl2, 12% glycerol, 0.5 mM DTT, 0.5 mM UpG, 66 ng/ul BSA, ~4 ng template, ~80 ng Pol II; native protein; label: 5'-Cy5 on bottom strand (strand 1)

“GCAGGTCGACTCTAGAGGATCCCGGGAGTGGAATGAGAAATGAAGATCAAAAAAAATTA / GATCTTCATTTCTCATTCCACTCCCGGGATCCTCTAGAGTCGACCTGC”: binds [1]; binds [2]; binds [3]. “GCAGGTCGACTCTAGAGGATCCCGGGAGTGGAATGAGAAATGAAGATCAAAAAAAATTA / GATCTTCATTTCTCATTCCACTCCCGGGATCCTCTAGAGTCGACCTGC”: binds [4]; binds [5]; binds [6]. “GCAGGTCGACTCTAGAGGATCCCGGGAGTGGAATGAGAAATGAAGATCAAAAAAAATTA / GATCTTCATTTCTCATTCCACTCCCGGGATCCTCTAGAGTCGACCTGC”: no binding [7]; binds [8]; binds [9]. “GCAGGTCGACTCTAGAGGATCCCGGGAGTGGAATGAGAAATGAAGATCAAAAAAAATTA / GATCTTCATTTCTCATTCCACTCCCGGGATCCTCTAGAGTCGACCTGC”: binds [10]; binds [11]; binds [12]. “GCAGGTCGACTCTAGAGGATCCCGGGAGTGGAATGAGAAATGAAGATCAAAAAAAATTA / GATCTTCATTTCTCATTCCACTCCCGGGATCCTCTAGAGTCGACCTGC”: binds [13]; binds [14]; binds [15]. “GCAGGTCGACTCTAGAGGATCCCGGGAGTGGAATGAGAAATGAAGATCAAAAAAAATTA / GATCTTCATTTCTCATTCCACTCCCGGGATCCTCTAGAGTCGACCTGC”: binds more weakly [16]; binds [17].

The exact form of at least one protein or probe is not confirmed. For some assays here: A negative result means that nothing was seen under these conditions. For some assays here: The comparison behind a weaker result is the experiment's own reference, which may not be listed here.
